# PubChem BioAssay AID1259424 | University of Nebraska Medical Center – 2018
# Test: 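Rank knockdowns across the genome by resemblance to the KSR1 depletion profile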 (primary screen)
# Cells: human HCT116 colon cancer cells
# Reagent: siRNA pool against human genes, 50 nM
# Detection: 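Six signature mRNAs by branched-DNA multiplex assay, scaled to two housekeeping genes and non-targeting median, log2; matched to mean KSR1 knockdown profile by Pearson correlation and euclidean distance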
# Reading the numbers: mean correlation with KSR1 profile and KSR1 correlation: higher = expression change more like KSR1 knockdown; mean distance from KSR1 profile: higher = expression change less like KSR1 knockdown
# Here is a random part of about 14,000 deposited reagents. 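Higher correlation or smaller distance means closer resemblance to KSR1 loss; control wells, including KSR1 knockdowns, recur on many plates.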 Reagent sequences are not shown. Not given: the time to read-out.
Gene,PubChem SID,mean correlation with KSR1 profile,mean distance from KSR1 profile,"KSR1 correlation, replicate 1","KSR1 correlation, replicate 2","KSR1 correlation, replicate 3"
MAPKAP1,SID364002764,-0.34,1.32,-0.484,-0.0818,-0.372
KRT37,SID363994834,-0.4,2.39,-0.549,-0.0418,-0.838
FFAR4,SID364004942,0.193,1.66,-0.0854,0.231,0.029
NOB1,SID363998586,0.0824,2.69,-0.0788,-0.0194,0.0166
TRPV5,SID364001447,-0.0923,1.05,0.14,0.371,-0.388
MTUS2,SID364005302,-0.0935,1.03,0.152,-0.202,-0.0851
TFRC,SID363994357,0.0515,4.88,0.0807,-0.0336,-0.0225
ZDHHC6,SID364002479,-0.162,3.41,-0.313,-0.48,0.0184
ZNF79,SID363997846,-0.422,2.41,-0.468,-0.43,-0.396
PIP5K1C,SID363998284,-0.583,1.79,-0.463,-0.71,-0.547
MAGI3,SID364001919,-0.0155,4.26,0.288,0.13,-0.205
NDOR1,SID363998850,-0.0755,2.24,-0.158,-0.299,-0.358
HCFC1,SID363996250,0.249,1.91,-0.138,0.509,0.325
GOLGA7,SID363999870,-0.396,2.74,-0.502,-0.312,-0.134
GIGYF2,SID363999581,0.0406,5.49,0.228,-0.0408,-0.273
LDB2,SID363992574,-0.0296,2.68,0.156,0.141,-0.155
ATXN10,SID363998360,-0.28,2.38,-0.417,-0.351,-0.186
GHRHR,SID363992111,-0.0955,2.6,0.00568,0.0187,-0.402
KCTD14,SID364002655,0.413,2.6,0.231,0.297,0.382
MEDAG,SID364004225,0.165,1.66,0.411,-0.512,-0.241
TNFAIP2,SID363997113,-0.566,2.59,-0.752,-0.249,-0.588
GAL,SID363999763,-0.027,2.53,-0.122,0.0757,0.248
MESP1,SID364001169,0.345,2.39,0.233,0.132,0.396
MRPL45,SID364003935,0.448,2.07,0.302,0.425,0.414
ZZEF1,SID363999309,-0.152,2.59,0.0362,-0.308,0.0124
TOR1B,SID363998914,-0.376,2.29,-0.393,-0.546,-0.729
GLRX,SID363993271,0.219,1.77,0.119,-0.0674,0.388
DPAGT1,SID363992653,0.305,2.44,0.314,0.206,0.212
ZNF580,SID363999945,-0.0679,4.26,-0.271,-0.0703,0.147
LYRM2,SID364001715,0.147,1.61,0.0141,0.358,0.328
VBP1,SID363994484,0.756,2.37,0.74,0.688,0.79
UBE2K,SID363996255,0.58,1.24,0.62,0.503,0.674
USP9X,SID363995618,0.158,1.35,0.119,0.024,0.256
TOB1,SID363996633,0.676,1.38,0.618,0.715,0.475
